# Assay results reported in PubChem BioAssay AID2685 (National Center for Advancing Translational Sciences (NCATS), 2010).
# The other results are listed elsewhere or left out. These are further read-outs of the screen, such as a control signal, another cell line or another target. No call is given for them. Most of these compounds were active or inconclusive in the main read-out, so they are no random draw. Words in brackets tell the shape of the fitted curve; partial curves, single points and poor fits give uncertain potencies.
# Experiment: qHTS Assay for Lipid Storage Modulators in Drosophila S3 Cells;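 as to cell number change: cells counted by Cell Tracker Red CMTPX staining in the red channel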
# Settings: BODIPY lipid droplet fluorescence, 18-24 h; for cell number change: measured here: cell count max response, cells fed with added oleic acid
# In short: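 Drosophila S3 cells got compounds at several concentrations plus oleic acid (400 uM solution). Laser-scanning cytometry with 488 nm excitation read lipid droplets at 500-530 nm and cells at 575-640 nm. Percent activity was relative to 20 uM Triacsin C.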
# [1] = measured here: cell number channel AC50, cells fed with added oleic acid
# [2] = measured here: lipid fluorescence (Fed channel) AC50, cells fed with added oleic acid
Structure (SMILES),cell number change,AC50 [1],AC50 [2]
CSc1ccccc1NC(=O)CCc1ccccc1,-14.8%,"6.51 µM [falling, single point]","2.59 µM [falling, single point]"
CN(C(=O)CSc1nc(N)c2c3c(sc2n1)CSC(C)(C)C3)c1ccccc1,-28.2%,,"16.4 µM [falling, single point]"
Cc1ccc(C)c(N2CCN(CCCNC(=O)Cn3cccc3C(=O)c3ccccc3C)CC2)c1,-13.9%,,"29.1 µM [falling, single point]"
CCOc1cc(S(=O)(=O)NCCCN2CCOCC2)ccc1F,24.3%,,
O=[N+]([O-])c1ccc2nc(-c3ccccc3[N+](=O)[O-])[nH]c2c1,-17.3%,,"29.1 µM [falling, single point]"
COc1ccc(C(=O)NC(=S)SCC(=O)O)cc1,-16.5%,,"0.651 µM [falling, full curve]"
CCc1nnc(NC(=O)C2CC(=O)N(CCc3ccc(F)cc3)C2)s1 (stereo not given),16.2%,,"11.6 µM [falling, partial curve, poor fit]"
COc1ccc(C2=NN(c3nc(-c4ccc(CNC(C)=O)cc4)cs3)C(c3ccco3)C2)cc1 (stereo not given),35%,"32.6 µM [rising, partial curve, poor fit]",
Cc1cc(C)n(CCC(=O)N/N=C/c2cccc([N+](=O)[O-])c2)n1,22.5%,"3.26 µM [rising, single point]","0.517 µM [rising, full curve]"
CCOC(=O)N1CCN(C(=O)c2ccc3c(c2)N(Cc2cc(C)ccc2C)C(=O)c2ccccc2S3=O)CC1 (stereo not given),-29.8%,,
Cc1ccc2nc(C)c(C(=O)N/N=C/c3cccc([N+](=O)[O-])c3)cc2c1,41.8%,"6.51 µM [falling, single point]","0.116 µM [rising, full curve]"
Cc1ccc2oc(C(F)(F)C(F)F)cc(=O)c2c1,-17.4%,"0.164 µM [falling, full curve, poor fit]",
CCCCOC(=O)c1ccc(NS(=O)(=O)c2cc(-c3nnnn3CC)ccc2OC)cc1,-13.4%,,"2.59 µM [rising, partial curve]"
COc1ccc(NC(=O)C2CCCO2)cc1OC (stereo not given),-0.71%,,
O=C(COC(=O)CC1CC2CCC1C2)Nc1ccc(Cl)c(S(=O)(=O)N2CCOCC2)c1 (stereo not given),22.4%,,"0.58 µM [falling, full curve]"
O=C(Cc1ccccc1Cl)NCc1cccnc1,-20.8%,,
N#Cc1nc(COc2cccc(Cl)c2)oc1N1CCN(c2ccccc2)CC1,15.4%,,"2.31 µM [rising, partial curve]"
OC(COC(c1ccc(Cl)cc1)c1ccc(Cl)cc1)CN1CCCC1 (stereo not given),-10.8%,,"0.13 µM [falling, full curve]"
C=CC[n+]1c(C)csc1Nc1ccc(C(=O)O)cc1,25.5%,,"16.4 µM [rising, partial curve, poor fit]"
CCOc1ccc(C(=O)Nc2c(C(=O)N3CCC(N4CCCCC4)CC3)oc3ccccc23)cc1,26.6%,"0.164 µM [rising, full curve, poor fit]",
CC(NC(=O)COC(=O)CNC(=O)C1CCCCC1)c1ccccc1 (stereo not given),6.55%,,"20.6 µM [rising, partial curve, poor fit]"
Cc1cccc(C)c1NC(=S)Nc1ccc(Cl)c(Cl)c1,-72%,"29.1 µM [falling, single point]",
O=C1C(=O)N(CCCN2CCOCC2)C(c2ccc(F)cc2)/C1=C(/O)c1ccccc1 (stereo not given),40.3%,"0.517 µM [rising, full curve, poor fit]","0.58 µM [falling, single point]"
COc1ccc(Br)cc1CNC(=O)C1CCCN(S(=O)(=O)N2CC(C)CC(C)C2)C1 (stereo not given),18%,,
Cc1ccc(S(=O)(=O)CCC(=O)Nc2nc(C(C)(C)C)cs2)cc1,,,"20.6 µM [falling, partial curve]"
CCC(Oc1ccccc1)C(=O)Nc1ccccc1N1CCCCC1 (stereo not given),-13.5%,,
COc1ccc(C(=O)C=CNNC(=O)c2ccc(Cl)cc2)cc1,-2.93%,,"2.06 µM [rising, single point]"
O=C(CCC(=O)OCC(=O)c1cccc([N+](=O)[O-])c1)Nc1cccc(Cl)c1Cl,137%,"29.1 µM [rising, single point]","20.6 µM [rising, single point]"
CCC(C(=O)OCC(=O)Nc1ccc(C(=O)Nc2ccc(OC)cc2)cc1)c1ccccc1 (stereo not given),-44.9%,"6.51 µM [rising, single point]","0.58 µM [falling, full curve]"
Cc1cc(S(=O)(=O)N2CCOCC2)ccc1OCC(=O)Nc1ccc(F)cc1F,53.3%,"13 µM [rising, partial curve, poor fit]","29.1 µM [falling, single point]"

# Given bar-delimited: entries from further up.
Structure (SMILES) | cell number change | AC50 [1] | AC50 [2]
O=[N+]([O-])c1ccc2nc(-c3ccccc3[N+](=O)[O-])[nH]c2c1 | -17.3% |  | 29.1 µM [falling, single point]
Cc1cc(C)n(CCC(=O)N/N=C/c2cccc([N+](=O)[O-])c2)n1 | 22.5% | 3.26 µM [rising, single point] | 0.517 µM [rising, full curve]
OC(COC(c1ccc(Cl)cc1)c1ccc(Cl)cc1)CN1CCCC1 (stereo not given) | -10.8% |  | 0.13 µM [falling, full curve]
CCOc1ccc(C(=O)Nc2c(C(=O)N3CCC(N4CCCCC4)CC3)oc3ccccc23)cc1 | 26.6% | 0.164 µM [rising, full curve, poor fit] | 
CC(NC(=O)COC(=O)CNC(=O)C1CCCCC1)c1ccccc1 (stereo not given) | 6.55% |  | 20.6 µM [rising, partial curve, poor fit]
COc1ccc(Br)cc1CNC(=O)C1CCCN(S(=O)(=O)N2CC(C)CC(C)C2)C1 (stereo not given) | 18% |  | 
Cc1ccc(S(=O)(=O)CCC(=O)Nc2nc(C(C)(C)C)cs2)cc1 |  |  | 20.6 µM [falling, partial curve]
Cc1cc(S(=O)(=O)N2CCOCC2)ccc1OCC(=O)Nc1ccc(F)cc1F | 53.3% | 13 µM [rising, partial curve, poor fit] | 29.1 µM [falling, single point]
